# PubChem BioAssay AID504467 (National Center for Advancing Translational Sciences (NCATS), 2011)
# The whole screen tested about 330,000 compounds, of which about 7,700 (2.3%) were called active. The shares of active, inactive and inconclusive entries below differ from those in the screen. Calls come from the whole dose curve; as a rule, active = well fitted inhibition curve with a large enough effect; inconclusive = small, poorly fitted or top-dose-only effect, or effect the other way; inactive = flat fitted curve, though single readings scatter. Potencies beside an inconclusive call are fits to weak or partial responses and may not hold up.
# Experiment: qHTS screen for small molecules that inhibit ELG1-dependent DNA repair in human embryonic kidney (HEK293T) cells expressing luciferase-tagged ELG1; note: nearly all actives have a fitted effect of over 55% in size
# Settings: HEK293T ELG1-luciferase reporter, luminescence, 16 h, DNA damage induced by 5-fluorouridine; activity change, negative = inhibition: at 46.1 µM (top of the series)
# Procedure, shortened: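 Luminescence from the luciferase reporter, measured 30 min after ONE-Glo reagent at room temperature, was the read-out. Beforehand, 2,000 cells per well were exposed for 16 hr at 37 °C to 5-fluorouridine together with compound or vehicle.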
# % is set by controls: 0 for no effect and ±100 for the full control effect; potency is the fitted concentration of half-maximal effect.
SMILES,Potency,"activity change, negative = inhibition"
CCCN1CCc2c(sc(NC(=S)NC(=O)c3ccccc3)c2C#N)C1,"inconclusive: 14.6 µM [activator, partial curve]",
CCOC(=O)N1CCN(C(=O)c2ccc3c(=O)n(CCc4ccccc4)c(=O)[nH]c3c2)CC1,inactive,
CCCCS/C(=C(/C#N)C(N)=O)c1cc2c([nH]1)CCCC2,"inconclusive: 20.6 µM [inhibitor, partial curve]",
CCOC(=O)C1(Cc2cccc(F)c2)CCN(C(=O)Cn2cnnn2)CC1,inactive,
CC(C)CCc1c(O)nc(SCC(=O)N2CCCCCC2)[nH]c1=O,"inconclusive: 32.6 µM [activator, partial curve, poor fit]",
CCC(=O)Nc1ccc(NC(=O)c2ccccn2)cn1,"inconclusive: 3.66 µM [activator, full curve]",
Cc1ccccc1NC(=O)CSc1nc(N)c(C#N)cc1C#N,inactive,
COc1ccc(CN(CCC(c2ccccc2)c2ccco2)C(=O)c2ccco2)cc1 (stereo not drawn),"inconclusive: 32.6 µM [inhibitor, single point]",
Cc1ccccc1NC(=S)NC(=O)C1CCCCC1,"inconclusive: 23.1 µM [activator, partial curve, poor fit]",
CCOc1ccc(NC(=O)CCNS(=O)(=O)c2ccc3c(c2)CC(C)N3C(C)=O)cc1 (stereo not drawn),inactive,
Clc1cccc(Cl)c1CSc1cc2c(nn1)-c1ccccc1CC2,"inconclusive: 29.1 µM [activator, single point]",
CN(C)S(=O)(=O)c1cccc(C(=O)OCC(=O)Nc2sccc2C(N)=O)c1,active: 18.4 µM,
CCCSCCCNC(=O)c1ccccc1NC(=O)C1=CSCCO1,"inconclusive: 29.1 µM [inhibitor, single point]",
NC(=O)C1CCN(S(=O)(=O)c2cc3c4c(c2)CCN4C(=O)CC3)CC1,inactive,
COc1ccc(-c2cc(C(=O)Nc3c(C)nn(Cc4ccccc4)c3C)no2)cc1,inactive,
N#Cc1cccc(NC(=O)CN2CCN(Cc3ccccc3)CC2)c1,inactive,
Cc1cc(=O)n2nc(N3CCCC(C(=O)NCCCN4CC(C)CC(C)C4)C3)sc2n1 (stereo not drawn),"inconclusive: 16.4 µM [activator, partial curve, poor fit]",
CN1CCN(C(=O)c2ccc(S(=O)(=O)c3ccc(Br)cc3)cc2)CC1,"inconclusive: 16.4 µM [inhibitor, single point]",
COc1ccc(N2CCN(c3ncnc4c3nnn4Cc3ccccc3Cl)CC2)cc1,"inconclusive: 5.17 µM [inhibitor, full curve]",
NC(=O)CC(NC(=O)Cc1cccc2ccccc12)c1ccc(NCCc2ccccc2F)c([N+](=O)[O-])c1 (stereo not drawn),inactive,
Cc1cccc(NCCC(=O)c2ccc([N+](=O)[O-])cc2)c1C,inactive,
O=C(CN1CCSc2ccccc21)NCCCc1ccccc1,"inconclusive: 23.1 µM [activator, partial curve]",
CC(C)c1ccc(C(=O)NC2=NCCS2)cc1,"inconclusive: 2.31 µM [activator, partial curve, poor fit]",
CCC(=O)N1CCN(c2ccc(NC(=O)COc3ccccc3Cl)cc2)CC1,active: 18.4 µM,

# Exported tab-delimited: 3 of the compounds above.
SMILES	Potency	activity change, negative = inhibition
NC(=O)C1CCN(S(=O)(=O)c2cc3c4c(c2)CCN4C(=O)CC3)CC1	inactive	
COc1ccc(-c2cc(C(=O)Nc3c(C)nn(Cc4ccccc4)c3C)no2)cc1	inactive	
N#Cc1cccc(NC(=O)CN2CCN(Cc3ccccc3)CC2)c1	inactive	

# Remaining list, next part:

SMILES,Potency,"activity change, negative = inhibition"
COC(=O)c1ccc2nc(NC(=O)CSCC(=O)OCC(=O)c3ccccc3)sc2c1,"inconclusive: 29.1 µM [activator, single point]",
CC1CCCN(S(=O)(=O)c2csc(C(N)=O)c2)C1 (stereo not drawn),inactive,
Cc1cc(-n2c(C)cc(C(=O)CSc3nnnn3-c3ccc(Cl)cc3)c2C)no1,inactive,
O=[N+]([O-])c1cccc(N=Cc2sc3ccccc3c2O)c1,"inconclusive: 29.1 µM [activator, single point]",
COn1c(SC(C)C)nc2ccccc2c1=O,,inconclusive: 18% [activator]
COc1ccc(C(=O)CSC#N)cc1OC,"inconclusive: 29.1 µM [activator, single point]",
CCOc1ccc(N2CC(=O)Nc3ccccc3NCC2=O)cc1,inactive,
O=C1C=C(NNC(=O)c2ccccc2Br)CCC1,inactive,
Cc1cc(Oc2ccc(=O)n(C)n2)nc(SCCOc2ccccc2)n1,"inconclusive: 29.1 µM [inhibitor, single point]",
O=C(Nc1ccccc1)c1cccc(S(=O)(=O)NCc2ccco2)c1,inactive,
Cc1cc(C(=O)Nc2cccc(S(=O)(=O)N3CCOCC3)c2)c2ccccc2n1,"inconclusive: 29.1 µM [inhibitor, single point]",
C=C(C)[C@@H]1CC[C@]2(C(=O)O)CC[C@]3(C)C(CCC4[C@@]5(C)CC[C@H](O)C(C)(C)C5CC[C@]43C)C12 (stereo partly drawn),inactive,
O=C(Cc1cccs1)N(c1ccc(F)cc1)C1(C(=O)NC2CCCCC2)CCCC1,inactive,
CCN1CCN(C(=O)c2cc(-c3ccco3)nc3ccccc23)CC1,"inconclusive: 0.259 µM [activator, single point]",
COc1ccc(/C(N)=N/OC(=O)Cc2cccs2)cc1OC,"inconclusive: 11.6 µM [activator, partial curve]",
O=C(CC1C[C@H](C(=O)N2CCOCC2)[C@@]2(CCC3CCCC3)c3[nH]c4ccccc4c3CCN2C1=O)NCc1ccco1 (stereo partly drawn),inactive,
Cc1ccc(C2=NCCn3nc4cc([N+](=O)[O-])ccc4c32)cc1,"inconclusive: 22.4 µM [activator, single point]",
COCC1CCN(Cc2nc(COc3ccccc3)no2)C1 (stereo not drawn),"inconclusive: 25.9 µM [activator, partial curve, poor fit]",
CCC(=O)Nc1ccc(C(=O)CSc2nnc(CNc3ccc(Cl)cc3)o2)cc1OC,active: 11.6 µM,
COCCn1c(=NC(=O)CSCC(=O)N2CCOCC2)sc2cc(C)ccc21,"inconclusive: 29.1 µM [inhibitor, single point]",
C=C1CCC[C@]2(C)C[C@H]3OC(=O)C(CNC(CC)CO)[C@H]3CC12 (stereo partly drawn),inactive,
CCOc1ccc(/C=C2\SC(=S)N(CCCC(=O)NCCCN3CCOCC3)C2=O)cc1,inactive,
COc1ccc(-c2nn(C)c(=O)c3ccccc23)cc1CNC(=O)C1CCCCC1,active: 20.6 µM,
COc1ccc(N2CCN(C(=O)c3cn(C)c4ccc(S(=O)(=O)N5CCOCC5)cc4c3=O)CC2)cc1,"inconclusive: 18.3 µM [activator, single point]",
